# Data as given in PubChem BioAssay AID504786 (Drosophila RNAi Screening Center, 2011).
# Purpose: 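Fly genes required for HIF-dependent transcription when hypoxia is mimicked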 (primary screen)
# System: Drosophila S2 cells with a stable HIF luciferase reporter
# Reagent: long dsRNA against Drosophila genes, about 0.2 µg dsRNA per well of a 384-well plate
# Duration: three days of knock-down, then 20 h of DFO before reading
# Challenge: desferrioxamine (DFO) at 100 µM, an iron chelator that mimics hypoxia, for 20 h
# Detection: 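Firefly luciferase driven by the mouse ldh-a hypoxia-response element, measured after 20 h of 100 µM DFO; z-scores per plate, higher means more signal lost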
# Reading the numbers: z-score: higher = stronger loss of HIF reporter signal
# The screen tested about 21,000 reagents; this is a random part of those with a known target gene and a result. 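Primary screen; positive scores mean lost reporter signal, so the sign may be inverted from the usual convention.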 Reagents against one gene are numbered here. A plus sign joins genes that one reagent is predicted to hit.
gene,reagent no.,"z-score, replicate 1","z-score, replicate 2","z-score, replicate 3","z-score, replicate 4"
CG12024,1,-0.2,-0.3,,
CG12519,1,-0.3,-0.5,,
CG2909,1,1.3,0.5,,
GstD4 (Glutathione S transferase D4),1,-0.4,-0.2,,
CG14839,1,-0.4,-0.3,,
CG12729,1,-0.2,-0.6,,
CG18417,1,-0.2,0,,
CG12617,1,-0.3,0.1,,
Csl4,1,-0.3,-0.4,,
Naa30B (N(alpha)-acetyltransferase 30 B),1,-0.3,-0.2,,
CG7406,1,0.2,-0.1,,
Tektin-A (Tektin A),1,-0.3,-0.5,,
CG3036,1,-0.1,-0.3,,
CG3036,2,-0.3,-0.1,,
CG8300,1,-0.4,-0.2,,
CG5639,1,-0.1,0,,
CtBP (C-terminal Binding Protein),1,1.3,1.9,,
CG12861,1,-0.4,-0.2,,
EndoG (Endonuclease G),1,-0.4,-1.1,0,-0.3
Dmtn (Dementin),1,-0.1,0.2,,
Vha44 (Vacuolar H[+] ATPase 44kD subunit),1,0,-0.4,,
Vha44 (Vacuolar H[+] ATPase 44kD subunit),2,-0.3,-0.5,,
nej (nejire),1,-0.5,1.1,,
nej (nejire),2,0.6,0.7,,
CG42812 + CG42811,1,-0.5,0.6,,
CG42812 + CG42811,2,-0.2,-0.7,,
CG3744,1,0,1.2,,
scpr-B (SCP-containing protein B),1,-0.3,-0.3,,
CG42404,1,-0.3,-0.6,,
step (steppke),1,-0.1,0,,
step (steppke),2,-0.2,0,,
mRpL20 (mitochondrial ribosomal protein L20),1,1,1.1,,
Hs2st (Heparan sulfate 2-O-sulfotransferase),1,-0.3,0.3,,
LysRS (Lysyl-tRNA synthetase),1,-0.1,1.2,,
CG18428,1,-0.2,-0.2,,
CG32445,1,-0.2,0.4,,
CheA46a (Chemosensory protein A 46a),1,-0.2,-0.1,,
CG6153,1,-0.4,-0.3,,
Tg (Transglutaminase),1,-0.4,-0.5,,
CG34039,1,0.4,0,,
Nup153 (Nucleoporin 153kD),1,5.5,2.9,2.8,5.1
CG1299,1,-0.3,-0.6,,
KCNQ (KCNQ potassium channel),1,0.1,0.4,,
KCNQ (KCNQ potassium channel),2,-0.4,-0.1,,
Pcl (Polycomblike),1,1.1,1.5,,
sano (serrano),1,-0.2,-0.3,,
w (white),1,-0.4,0,,
w (white),2,-0.1,-0.4,,
CG17328,1,-0.2,-0.3,-1,-0.3
Tis11 (Tis11 zinc finger protein),1,0,0.3,,
l(2)k14505 (lethal (2) k14505),1,0,-0.2,,
CG17385,1,0.5,-0.1,,
CG42262 (retired record),1,0.6,0.1,,
CG42262 (retired record),2,-0.2,-0.2,,
Idgf6 (Imaginal disc growth factor 6),1,-0.3,-0.3,,
CG2694,1,-0.1,-0.7,,
CG9067,1,-0.5,-0.9,,
Atg10 + CG12822,1,-0.3,0.2,,
CG9106,1,-0.3,-0.4,,
Mf (Myofilin),1,-0.3,-0.2,,
LPCAT (Lysophosphatidylcholine acyltransferase),1,-0.1,-0.2,,
LPCAT (Lysophosphatidylcholine acyltransferase),2,-0.3,-0.3,,
CG15286,1,-0.3,-0.3,,
CG13398,1,-0.4,-0.7,,
Usp7 (Ubiquitin-specific protease 7),1,-0.1,0,,
Usp7 (Ubiquitin-specific protease 7),2,-0.2,-0.4,,
OXA1L (OXA1L mitochondrial inner membrane protein),1,0.2,0.5,,
tplus3a + tplus3b,1,1.2,0.1,,
Ih (I[[h]] channel),1,-0.4,-0.5,,
mam (mastermind),1,1.6,2.4,,
mam (mastermind),2,-0.4,1.4,,
Ctr9,1,-0.2,-0.4,,
Dok (Downstream of kinase),1,-0.1,-0.4,,
CG12951,1,-0.4,-0.2,,
Bka (Bekka),1,0.2,1.5,,
yellow-d2,1,-0.2,0.2,,
Ir85a (Ionotropic receptor 85a),1,-0.3,-0.7,,
r + CG13012,1,-0.4,0.1,,
CG3323,1,-0.2,-0.4,,
CG7966,1,-0.3,-0.4,,
Fbw5 (F-box and WD repeat domain containing 5),1,-0.4,-0.5,,
Kots (Kotsubu),1,-0.3,-0.2,,
CR30068 (retired record),1,-0.3,-0.3,,

Looked up above.
Fbw5 (F-box and WD repeat domain containing 5), z-score, replicate 2 = -0.5
Under “z-score, replicate 1”, sano (serrano) has -0.2
Value for KCNQ (KCNQ potassium channel) #1 under “z-score, replicate 2”: 0.4
Result of LPCAT (Lysophosphatidylcholine acyltransferase) #1 in “z-score, replicate 1”: -0.1
Bka (Bekka), z-score, replicate 1: 0.2
Under “z-score, replicate 2”, CtBP (C-terminal Binding Protein) has 1.9
